{"source": "PubChem BioAssay AID504744 | Drosophila RNAi Screening Center | 2011", "test": "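Identify dsRNAs that increase or decrease phospho-dAkt after insulin treatment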 (primary screen)", "cells": "Drosophila Kc167 cells", "reagent": "long dsRNA against Drosophila genes, 250 ng dsRNA per well of a 384-well plate", "duration": "3 days of knock-down, then overnight serum-free starvation before stimulation", "treatment": "bovine insulin at 387 nM for 10 minutes after 12 h without serum", "detection": "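In-cell antibody fluorescence for phospho-dAkt in each well over DNA-dye signal, with log2 residuals expressed as z-scores adjusted for cell count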", "rule for the call": "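Hit in the insulin screen when the two-replicate mean z-score is more extreme than plus or minus 2.5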", "note": "The deposit covers about 23,000 reagents; shown is a random part of those with a known target gene and a result. Of all reagents, 98 (0.43%) were called active. 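Only hit calls are given; the phospho-dAkt signals, z-scores and hit direction were not deposited.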"}
{"gene": "CG31534 (retired record)", "dsRNA": "DRSC12141", "outcome": "inactive"}
{"gene": "CG31534 (retired record)", "dsRNA": "DRSC12289", "outcome": "inactive"}
{"gene": "Nlp", "dsRNA": "DRSC16759", "outcome": "inactive"}
{"gene": "CG15029 (retired record)", "dsRNA": "DRSC19610", "outcome": "inactive"}
{"gene": "Lcp65Ac", "dsRNA": "DRSC11210", "outcome": "inactive"}
{"gene": "ocm", "dsRNA": "DRSC04360", "outcome": "inactive"}
{"gene": "CG5882", "dsRNA": "DRSC15907", "outcome": "inactive"}
{"gene": "P32", "dsRNA": "DRSC06988", "outcome": "inactive"}
{"gene": "Dlg5", "dsRNA": "DRSC02964", "outcome": "inactive"}
{"gene": "p23", "dsRNA": "DRSC15158", "outcome": "inactive"}
{"gene": "CG42367", "dsRNA": "DRSC21388", "outcome": "inactive"}
{"gene": "CG14238", "dsRNA": "DRSC14732", "outcome": "inactive"}
{"gene": "CG2127", "dsRNA": "DRSC06821", "outcome": "inactive"}
{"gene": "CG31195", "dsRNA": "DRSC13440", "outcome": "inactive"}
{"gene": "CG15676", "dsRNA": "DRSC04267", "outcome": "inactive"}
{"gene": "salr", "dsRNA": "DRSC03607", "outcome": "inactive"}
{"gene": "CG1774", "dsRNA": "DRSC15258", "outcome": "inactive"}
{"gene": "CG6696", "dsRNA": "DRSC20004", "outcome": "inactive"}
{"gene": "CG9902", "dsRNA": "DRSC20212", "outcome": "inactive"}
{"gene": "Meics", "dsRNA": "DRSC11413", "outcome": "inactive"}
{"gene": "CG33287", "dsRNA": "DRSC22929", "outcome": "inactive"}
{"gene": "dpr16", "dsRNA": "DRSC12217", "outcome": "inactive"}
{"gene": "dpr16", "dsRNA": "DRSC12249", "outcome": "inactive"}
{"gene": "Mst84B", "dsRNA": "DRSC12579", "outcome": "inactive"}
{"gene": "kug", "dsRNA": "DRSC10911", "outcome": "inactive"}
{"gene": "Ero1L", "dsRNA": "DRSC08660", "outcome": "inactive"}
{"gene": "CG31751", "dsRNA": "DRSC02464", "outcome": "inactive"}
{"gene": "CG31751", "dsRNA": "DRSC02465", "outcome": "inactive"}
{"gene": "CG7878", "dsRNA": "DRSC16330", "outcome": "inactive"}
{"gene": "mu2", "dsRNA": "DRSC08726", "outcome": "inactive"}
{"gene": "mu2", "dsRNA": "DRSC21534", "outcome": "inactive"}
{"gene": "CG9500", "dsRNA": "DRSC03237", "outcome": "inactive"}
{"gene": "Bap55", "dsRNA": "DRSC07000", "outcome": "inactive"}
{"gene": "vig2", "dsRNA": "DRSC14402", "outcome": "inactive"}
{"gene": "Rbp1", "dsRNA": "DRSC16817", "outcome": "inactive"}
{"gene": "CG10341", "dsRNA": "DRSC02040", "outcome": "inactive"}
{"gene": "CG32241", "dsRNA": "DRSC08100", "outcome": "inactive"}
{"gene": "CG32241", "dsRNA": "DRSC21518", "outcome": "inactive"}
{"gene": "CG32511 (retired record)", "dsRNA": "DRSC20697", "outcome": "inactive"}
{"gene": "RfC3", "dsRNA": "DRSC03411", "outcome": "inactive"}
{"gene": "Obp56i", "dsRNA": "DRSC05812", "outcome": "inactive"}
{"gene": "CG32988", "dsRNA": "DRSC02692", "outcome": "inactive"}
{"gene": "CG8531", "dsRNA": "DRSC07209", "outcome": "inactive"}
{"gene": "ap", "dsRNA": "DRSC04917", "outcome": "inactive"}
{"gene": "Fak", "dsRNA": "DRSC07426", "outcome": "inactive"}
{"gene": "CG13465", "dsRNA": "DRSC10011", "outcome": "inactive"}
{"gene": "CARPB", "dsRNA": "DRSC18437", "outcome": "inactive"}
{"gene": "CARPB", "dsRNA": "DRSC18438", "outcome": "inactive"}
{"gene": "Hs3st-B", "dsRNA": "DRSC20067", "outcome": "inactive"}
{"gene": "CG32026", "dsRNA": "DRSC08950", "outcome": "inactive"}
{"gene": "CG15711", "dsRNA": "DRSC06582", "outcome": "inactive"}
{"gene": "SC35", "dsRNA": "DRSC02502", "outcome": "inactive"}
{"gene": "SC35", "dsRNA": "DRSC03425", "outcome": "inactive"}
{"gene": "CG15219", "dsRNA": "DRSC03715", "outcome": "inactive"}
{"gene": "Atxn7", "dsRNA": "DRSC00726", "outcome": "inactive"}
{"gene": "pav", "dsRNA": "DRSC08730", "outcome": "inactive"}
{"gene": "CG34176", "dsRNA": "DRSC00435", "outcome": "inactive"}

8 consecutive reagents from above, quoted:
{"gene": "ocm", "dsRNA": "DRSC04360", "outcome": "inactive"}
{"gene": "CG5882", "dsRNA": "DRSC15907", "outcome": "inactive"}
{"gene": "P32", "dsRNA": "DRSC06988", "outcome": "inactive"}
{"gene": "Dlg5", "dsRNA": "DRSC02964", "outcome": "inactive"}
{"gene": "p23", "dsRNA": "DRSC15158", "outcome": "inactive"}
{"gene": "CG42367", "dsRNA": "DRSC21388", "outcome": "inactive"}
{"gene": "CG14238", "dsRNA": "DRSC14732", "outcome": "inactive"}
{"gene": "CG2127", "dsRNA": "DRSC06821", "outcome": "inactive"}
